The supplement of paper PMC10735217
The list shows a part of the results. Repeats in this data set agree poorly, so a single value says little.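 In a drug-repurposing library screen, luminescence reads luciferase driven by eight TEAD-binding elements, stably integrated into human kidney-derived cells. Compounds scoring over five robust Z scores above the plate mean are called hits.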

Test system: HEK293A TEAD-LUC reporter
Assay: TEAD-luciferase reporter activity (YAP activation), robust Z score vs plate; higher = stronger YAP/TEAD activation
Conditions: 24 h

Row | SMILES | TEAD-luciferase reporter activity (compound concentration: 200 nM) | TEAD-luciferase reporter activity (compound concentration: 2 uM) | TEAD-luciferase reporter activity (compound concentration: 10 uM)
1 | O=C(/C=C/C#Cc1cccc(NS(=O)(=O)c2ccccc2)c1)NO | inactive: -2.85 | active: 7.28 | inactive: 4.52
2 | C=CCN1CCN(C(c2ccccc2)c2ccccc2)CC1 [Aligeron] | inactive: 1.27 | inactive: 1.66 | inactive: 1.76
3 | CC(C)S(=O)(=O)NC[C@H](C)c1ccc(-c2ccc(CCNS(C)(=O)=O)cc2)cc1 [mibampator] | inactive: 0.853 | inactive: -1.16 | inactive: -0.274
4 | CCCc1nn(C)c2c(=O)[nH]c(-c3cc(S(=O)(=O)N4CCN(C)CC4)ccc3OCC)nc12 [sildenafil, Kedem Pharmaceuticals] | inactive: -0.526 | inactive: -0.721 | inactive: -1.3
5 | Nc1cccc(OCCCNCC2COc3cc4c(cc3O2)OCO4)c1 (configuration not stated) | inactive: -0.811 | inactive: 0.0597 | inactive: 0.226
6 | C[C@@H](N)CCNCCCCNC(=O)OCC(=O)NCCCCCCNC(=N)N | inactive: -1.09 | inactive: -1.03 | inactive: 0.565
7 | C[N+]1(C)CCC(=C(c2ccccc2)c2ccccc2)CC1 [Diphemanil] | inactive: 0.224 |  | inactive: -1.31
8 | C[N+]1(C)CCC(=C(c2ccccc2)c2ccccc2)CC1 [Diphenmanil (methylsulfate)] |  | inactive: -0.164 | 
9 | COc1cc(/C=C/C(=O)O)ccc1O | inactive: 0.0553 |  | inactive: -0.765
10 | COc1cc(/C=C/C(=O)O)ccc1O [Ferulic acid (sodium)] |  | inactive: 0.122 | 
11 | C[C@@H]1c2ccccc2CCN1C(=O)c1cc2ncc(Br)cn2n1 | inactive: -0.397 | inactive: 1.11 | inactive: 1.73
12 | COc1cc2c(c3c1c(=O)c1cc4ccccc4cc1n3C)[C@H](OC(C)=O)[C@H](OC(C)=O)C(C)(C)O2 |  | inactive: -1.84 | 
13 | Cn1cc(-c2ccc3nnc(Sc4ccc5ncccc5c4)n3n2)cn1 | inactive: 0.157 | inactive: -1.63 | inactive: -0.196
14 | CC(=O)NC(C(=O)O)C(C)(C)SN=O (configuration not stated) | inactive: -0.426 | inactive: -1.88 | inactive: 0.744
15 | CCCCc1nc(Cl)c(C(=O)O)n1Cc1ccc(-c2ccccc2-c2nn[nH]n2)cc1 [Carboxylosartan] | inactive: -1.43 | inactive: 0.912 | inactive: -0.778
16 | Cc1cc(C)cc(CN2CCCCC23Cc2ccccc2CNC3=O)c1 (configuration not stated) | inactive: 0.555 |  | inactive: 0.0893
17 | CC(C)NC[C@@H](C(=O)N1CCN(c2ncnc3c2[C@H](C)C[C@H]3O)CC1)c1ccc(Cl)cc1 | inactive: -1.38 |  | inactive: 1.52
18 | CC(C)NC[C@@H](C(=O)N1CCN(c2ncnc3c2[C@H](C)C[C@H]3O)CC1)c1ccc(Cl)cc1 [Ipatasertib] |  | inactive: -0.903 | 

A different layout for part of the listing above:
CCCc1nn(C)c2c(=O)[nH]c(-c3cc(S(=O)(=O)N4CCN(C)CC4)ccc3OCC)nc12 [sildenafil, Kedem Pharmaceuticals]
  TEAD-luciferase reporter activity (compound concentration: 200 nM): inactive: -0.526
  TEAD-luciferase reporter activity (compound concentration: 2 uM): inactive: -0.721
  TEAD-luciferase reporter activity (compound concentration: 10 uM): inactive: -1.3
Nc1cccc(OCCCNCC2COc3cc4c(cc3O2)OCO4)c1 (configuration not stated)
  TEAD-luciferase reporter activity (compound concentration: 200 nM): inactive: -0.811
  TEAD-luciferase reporter activity (compound concentration: 2 uM): inactive: 0.0597
  TEAD-luciferase reporter activity (compound concentration: 10 uM): inactive: 0.226
